In US20050074834A1 (priority 2001, published 2005):

What was measured:
[1] = system: Betta splendens erythrophores; format: cell-based
chromatophores [2] = system: chromatophores
chromatophores [3] = test: cells; details: read-out: Threshold concentration PPM

Row | Compound | Morphology Effect: Aggregation [1] | Morphology Effect: Dispersion [1] | erythrophore pigment dispersion response, control [1] | erythrophore pigment response after norepinephrine pre-treatment [1] | Threshold concentration PPB (chromatophores [2]) | effect on melanophores (melanophores) | Response time Hr. (chromatophores [2]) | minimal effective concentration (chromatophores [3]) [µg/mL]
1 | COc1ccc([C@@H]2Sc3ccccc3N(CCN(C)C)C(=O)[C@@H]2OC(C)=O)cc1 [Diltiazem] | No | Yes | failed to induce pigment dispersion response | produces pigment dispersion | XX (key: X=1 to 100 PPB; XX=100 to 1000 PPB) | does not alter melanophores |  | 
2 | CN(C)[C@@H]1C(O)=C(C(N)=O)C(=O)[C@@]2(O)C(O)=C3C(=O)c4c(O)cccc4[C@@](C)(O)[C@H]3C[C@@H]12 [Tetracycline] |  |  |  |  |  |  | XX (key: X=1-6 hr; XX=6-24 hr) | 1 to 100
